The structures appear in SMILES notation. ± gives the standard deviation of the averaged measurements. The list shows a part of the results.

The assay relates to APPdp1-6 iPSC-derived neurons. In words: pThr231Tau/total Tau ratio Z-score vs DMSO vehicle wells; higher = more pThr231Tau relative to total Tau. The settings on record: 5 µM; treatment time 5 days.
In the case of `C=C(C)[C@H]1CN[C@H](C(=O)O)[C@H]1CC(=O)O` [KAINIC ACID    Occurrence: Digenia simplex], the “pThr231Tau/total Tau ratio Z-score” value is -0.213 ± 0.34.
As for `COc1ccc(CN2CCNCC2)c(OC)c1OC` [Prestw-549], the figure is 1.02 ± 1.4.
For the compound `CC[C@H]1CN2CC[C@H]1C[C@@H]2[C@@H](O)c1ccnc2ccc(OC)cc12`, the “pThr231Tau/total Tau ratio Z-score” value was -0.344 ± 1.2.
Consider `C=C[C@H]1CN2CC[C@H]1C[C@H]2[C@H](OC(=O)OCC)c1ccnc2ccc(OC)cc12` [QUININE ETHYL CARBONATE    Therap cat: antimalarial], for which the “pThr231Tau/total Tau ratio Z-score” value worked out at 4.19 ± 5.9.
The figure for `CN1CCC2(C)c3cc(O)ccc3N(C)C12` (configuration not stated) [Prestw-1082] is -0.0305 ± 0.57; for `C[C@]12CC[C@H]3[C@@H](CCC4=CC(=O)CC[C@@H]43)[C@@H]1CC[C@@H]2O` [Prestw-982] it is -0.379 ± 1.8; for `O=[N+]([O-])O[C@@H]1CO[C@H]2[C@@H]1OC[C@@H]2O` [Prestw-1294] it is 0.482 ± 0.75.
The figure for `N[C@@H](Cc1ccc(N(CCCl)CCCl)cc1)C(=O)O` is 0.511 ± 1.
The figure for `OC1CCCCC1N1CCC(c2ccccc2)CC1` (configuration not stated) [Prestw-920] is 0.349 ± 0.4; for `CC(C)N(CCC(C(N)=O)(c1ccccc1)c1ccccn1)C(C)C` (configuration not stated) [Prestw-266] it is 0.338 ± 0.034; for `C[C@H](N)[C@H](O)c1ccc(O)c(O)c1` [Prestw-739] it is -0.353 ± 1.8.
In the case of `O=C1CN=C(c2ccccc2Cl)c2cc([N+](=O)[O-])ccc2N1` [CLONAZEPAM, anticonvulsant, sedative], the “pThr231Tau/total Tau ratio Z-score” value is -0.672 ± 0.44.
As for `CCC(=O)O[C@@](Cc1ccccc1)(c1ccccc1)[C@@H](C)CN(C)C` [Prestw-1054], the figure is -1.46 ± 1.2.
As for `NCCc1cc(O)c(O)cc1O` [6-Hydroxydopamine], the figure is -0.00823 ± 0.54; as for `CCCC[N+]1(C)[C@@H]2CC(OC(=O)[C@H](CO)c3ccccc3)C[C@H]1[C@@H]1O[C@@H]12` (some centres not stated) [Prestw-1253], -0.613 ± 0.39.
The figure for `N#Cc1nn(-c2c(Cl)cc(C(F)(F)F)cc2Cl)c(N)c1[S+]([O-])C(F)(F)F` (configuration not stated) [FIPRONIL, GABA Cl channel agonist, antiparasitic] is 2 ± 2.1; for `O=C1C[C@@H]2OCC=C3CN4CC[C@]56c7ccccc7N1[C@H]5[C@H]2[C@H]3C[C@H]46` it is -4.19 ± 0.92.
As for `CC[C@@]1(O)C(=O)OCc2c1cc1n(c2=O)Cc2cc3ccccc3nc2-1` [Prestw-200], the “pThr231Tau/total Tau ratio Z-score” value is -2.42 ± 0.65.
As for `CN(C)[C@@H]1C(=O)C(C(N)=O)=C(O)[C@@]2(O)C(=O)C3=C(O)c4c(O)ccc(Cl)c4[C@@](C)(O)[C@H]3C[C@@H]12` [Prestw-145], the “pThr231Tau/total Tau ratio Z-score” value was 0.971 ± 0.44.
The figure for `CC(CCc1ccccc1)NC(C)C(O)c1ccc(O)cc1` (configuration not stated) [Prestw-1454] is 0.517 ± 0.38; for `CC(=O)OC1CN2CCC1CC2` (configuration not stated) [Prestw-1511] it is -0.0894 ± 0.28; for `C[N+](C)(C)CCCCCCCCCC[N+](C)(C)C` [Prestw-968] it is -1.02 ± 0.27.
The figure for `c1ccc2nc(N3CCNCC3)ccc2c1` [Prestw-617] is 0.63 ± 0.75; for `CN1C[C@H](C(=O)N[C@]2(C)O[C@@]3(O)[C@@H]4CCCN4C(=O)[C@H](Cc4ccccc4)N3C2=O)C[C@@H]2c3cccc4[nH]cc(c34)C[C@H]21` [Prestw-150] it is 0.551 ± 1.4; for `C[N+]1(C)[C@@H]2CC[C@H]1C[C@@H](OC(=O)C(CO)c1ccccc1)C2` (some centres not stated) [Prestw-900] it is 0.75 ± 0.8.
On to `Oc1cccc2cccnc12` [OXYQUINOLINE    Therap cat:  Disinfectant], for which the “pThr231Tau/total Tau ratio Z-score” value was -3.64 ± 0.7.
As for `CCCN1C[C@H](CSC)C[C@@H]2c3cccc4[nH]cc(c34)C[C@H]21` [Prestw-295], the figure is -0.0121.
The figure for `N.N.[Cl][Pt][Cl]` is 0.691 ± 0.79; for `CNc1ccc(C(=O)CC(O)CCC(C)C2OC(=O)CC(O)CC(=O)CC(O)CC(O)CC(O)CC(O)CC3(O)CC(O)C(C(=O)OC)C(CC(O[C@@H]4O[C@H](C)[C@@H](O)[C@H](N)[C@@H]4O)/C=C/C=C/C=C/C=C/C=C/C=C/C=C/C2C)O3)cc1.COC(=O)C1C(O)CC2(O)CC(O)CC(O)CC(O)CC(O)CC(=O)CC(O)CC(=O)OC(C(C)CCC(O)CC(=O)c3ccc(N)cc3)C(C)/C=C/C=C/C=C/C=C/C=C/C=C/C=C/C(O[C@@H]3O[C@H](C)[C@@H](O)[C@H](N)[C@@H]3O)CC1O2` (some centres not stated) it is -0.0307 ± 0.26; for `Cc1ncc(CNC(=O)N(CCCl)N=O)c(N)n1` it is -0.4 ± 1.
The figure for `C[N+]1(C)CCOC(O)(c2ccc(-c3ccc(C4(O)C[N+](C)(C)CCO4)cc3)cc2)C1` (configuration not stated) [Prestw-393] is -0.0897 ± 1.3.
Take `Nc1ccncc1`: the “pThr231Tau/total Tau ratio Z-score” value is -0.237 ± 0.012.
The figure for `C[C@]12CCC(=O)C=C1CC[C@@H]1[C@@H]2C(=O)C[C@]2(C)C(=O)CC[C@@H]12` [Prestw-899] is -0.405 ± 0.14; for `CN1C2CC(OC(=O)C(CO)c3ccccc3)CC1C(O)C2` (configuration not stated) it is -0.275 ± 1.2; for `COc1ccc(C(=O)N2CCCC2=O)cc1` [Prestw-1178] it is 1.09 ± 1.1.
The figure for `O=C(O)CCCc1ccc(N(CCCl)CCCl)cc1` [Prestw-1079] is 0.356 ± 1.6.
As for `CC[C@@H](C(N)=O)N1CCCC1=O` [Prestw-1427], the figure is 1.88 ± 0.92; as for `O=C1C=C2C=C[C@@H]3C[C@@]2(O1)[C@H]1CCCCN31`, 0.387 ± 0.24; as for `CCN[C@@H](C)Cc1cccc(C(F)(F)F)c1` [Prestw-1392], -0.41 ± 0.77.
Take `CC(C)=CC1C(C(=O)OCc2cccc(Oc3ccccc3)c2)C1(C)C` (configuration not stated) [PHENOTHRIN     Therap cat: ectoparasiticide]: the “pThr231Tau/total Tau ratio Z-score” value is 0.838 ± 0.73.
As to `C[CH2][Hg][S]c1ccccc1C(=O)[O-].[Na+]` [Prestw-1194], the “pThr231Tau/total Tau ratio Z-score” value was -3.28 ± 1.2.
The figure for `CN(C)C(=O)Oc1cc(OC(=O)N(C)C)cc(C(O)CNC(C)(C)C)c1` (configuration not stated) [Prestw-361] is -0.241 ± 1.8.
`CCn1cc(C(=O)O)c(=O)c2cc3c(cc21)OCO3` [Prestw-193]: the “pThr231Tau/total Tau ratio Z-score” value was -0.185 ± 0.23.
The figure for `CCC1(c2ccc(N)cc2)CCC(=O)NC1=O` (configuration not stated) [Prestw-244] is -1.77 ± 0.91.
The figure for `CC[C@@]1([C@@H]2O[C@@H]([C@H]3O[C@@](O)(CO)[C@H](C)C[C@@H]3C)C[C@@H]2C)CC[C@H]([C@]2(C)CC[C@]3(C[C@H](O)[C@@H](C)[C@@H]([C@@H](C)[C@@H](OC)[C@H](C)C(=O)O)O3)O2)O1` [Prestw-748] is -2.9 ± 2.4; for `CCN(C)C(=O)Oc1cccc([C@H](C)N(C)C)c1` [Prestw-1334] it is -0.0666 ± 0.031.
Take `C[C@@H]1O[C@@H](O[C@H]2C[C@@H](O)[C@]3(CO)[C@H]4[C@H](O)C[C@]5(C)[C@@H](C6=CC(=O)OC6)CC[C@]5(O)[C@@H]4CC[C@]3(O)C2)[C@H](O)[C@H](O)[C@H]1O`: the “pThr231Tau/total Tau ratio Z-score” value was -4.77 ± 1.1.

The record behind these values is the supplement of paper PMC6414424.
